PubChem BioAssay AID602196 – INSERM | 2012

- Assay: 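Genes whose knock-down alters cisplatin killing of lung cancer cells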
- System: human A549 lung cancer cells
- Knock-down reagent: siRNA pair against human genes
- Duration: 48 h transfection before cisplatin; time from cisplatin to read-out not stated
- Challenge: cisplatin at a dose killing half of control-siRNA cells; exact dose and duration not given
- Measured: 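Cisplatin cell death as a shift from the 50% death seen with control siRNA; siRNAs toxic or growth-blocking alone scored 0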
- Reading the numbers: two-siRNA summed score (-2 to +2): higher = both siRNAs protect from cisplatin killing; -2 means both sensitise; mean protection from cisplatin (shift in death) and protection from cisplatin (shift in death), siRNA C and protection from cisplatin (shift in death), siRNA D: higher = protection from cisplatin killing
- Hit rule: 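siRNAs harmful alone (LDH or WST-1) get 0; others get +1 for less and -1 for more cisplatin killing; genes are active when the two siRNAs give the same sign, summing to ±2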
- Meaning of the calls: active = both siRNAs shift cisplatin killing the same way; inactive = no consistent shift, or siRNA harmful alone
The deposit covers about 23,000 reagents; below is a random part of them. Of all reagents, 455 (2%) are marked active. 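Active includes both protection and sensitisation; some change values fall well beyond the stated -50 to +50 range.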 Not stated in the record: the amount of reagent.

gene knocked down | two-siRNA summed score (-2 to +2) | mean protection from cisplatin (shift in death) (%) | protection from cisplatin (shift in death), siRNA C (%) | protection from cisplatin (shift in death), siRNA D (%) | outcome
KIAA0363 | 0 | 19 | 30.9 | 7.1 | inactive
TRAM1L1 (translocation associated membrane protein 1 like 1) | 0 | -0.5 | 4.1 | -5.2 | inactive
AKAP3 (A-kinase anchoring protein 3) | 1 | 16.3 | 4 | 28.5 | inactive
PAICS | 0 | -7.1 | -7.5 | -6.7 | inactive
NSUN5P1 (NSUN5 pseudogene 1) | 0 | 12.9 | 6.9 | 18.8 | inactive
ZDHHC11 (zDHHC palmitoyltransferase 11) | -1 | -10.8 | 0.5 | -22.2 | inactive
MND1 (meiotic nuclear divisions 1) | 1 | 10.6 | 12.2 | 9.1 | inactive
CMKLR2 (chemerin chemokine-like receptor 2) | -1 | -2.7 | -11.8 | 6.4 | inactive
CD52 (CD52 molecule) | 0 | 16.9 | 9.3 | 24.5 | inactive
NFKBIL1 (NFKB inhibitor like 1) | 1 | 19.9 | 19.3 | 20.5 | inactive
ACAD9 (acyl-CoA dehydrogenase family member 9) | 0 | 5 | 6.8 | 3.1 | inactive
DYNLT5 (dynein light chain Tctex-type family member 5) | -1 | -0.6 | 12.8 | -14.1 | inactive
GPR174 (G protein-coupled receptor 174) | 2 | 11.8 | 10.7 | 13 | active
ZNF701 (zinc finger protein 701) | -1 | -6.9 | 9.9 | -23.7 | inactive
UROC1 (urocanate hydratase 1) | 0 | -5.2 | -9 | -1.4 | inactive
OXCT1 (3-oxoacid CoA-transferase 1) | 0 | -2.7 | -4.9 | -0.6 | inactive
SIN3B (SIN3 transcription regulator family member B) | 0 | -2.2 | 9.5 | -13.9 | inactive
AMPD2 (adenosine monophosphate deaminase 2) | 1 | 14 | 9 | 19 | inactive
GSTCD (glutathione S-transferase C-terminal domain containing) | 0 | 1.6 | 9.4 | -6.1 | inactive
RBM23 (RNA binding motif protein 23) | 0 | 2.3 | -3.6 | 8.2 | inactive
SMAD5 (SMAD family member 5) | -1 | -6.5 | -23.1 | 10 | inactive
PRRT2 (proline rich transmembrane protein 2) | 0 | -3.3 | 2 | -8.7 | inactive
FLJ44385 (retired record) | 0 | 6 | 3.4 | 8.6 | inactive

Sorted by “two-siRNA summed score (-2 to +2)” (highest first): 2 of the entries above
gene knocked down | two-siRNA summed score (-2 to +2) | mean protection from cisplatin (shift in death) (%) | protection from cisplatin (shift in death), siRNA C (%) | protection from cisplatin (shift in death), siRNA D (%) | outcome
KIAA0363 | 0 | 19 | 30.9 | 7.1 | inactive
TRAM1L1 (translocation associated membrane protein 1 like 1) | 0 | -0.5 | 4.1 | -5.2 | inactive
